Results taken from patent US7592341B2, “Peptide-enhanced corneal drug delivery” (Kansas State University Research Foundation, priority 2004, dated 2009).

Tested on: NC-1059
Assay: Quantitative isothermal calorimetry of dye binding to NC-1059
Conditions: ΔH of injectant vs molar ratio dye/peptide; 5 mM NaF, 15 mM CF

| Substance | best-fit binding model of dye to NC-1059 |
| --- | --- |
| Sodium Carboxy Fluorescein [NaF] | two-site model |
| 5(6)-Carboxy Fluorescein [CF] | single binding site |
